PubChem BioAssay AID504467 (National Center for Advancing Translational Sciences (NCATS), 2011)
Out of some 330,000 compounds screened, about 7,700 (2.3%) were called active. The inconclusive results got no clear call from the source; some entries with a clear call stand among them for comparison. Calls follow the shape of the dose curve; as a rule, active = well fitted inhibition curve with a large enough effect; inconclusive = small, poorly fitted or top-dose-only effect, or effect the other way; inactive = flat fitted curve, though single readings scatter. A potency beside an inconclusive call is a rough fit, not a confirmed value.
Potency is read from the fitted curve at half-maximal effect.

Test: qHTS screen for small molecules that inhibit ELG1-dependent DNA repair in human embryonic kidney (HEK293T) cells expressing luciferase-tagged ELG1; also: nearly all actives have a fitted effect of over 55% in size
Settings: HEK293T ELG1-luciferase reporter, luminescence, 16 h, DNA damage induced by 5-fluorouridine; series mostly up to 46.1 µM
Excerpt: NIH Molecular Libraries Probe Production Network [MLPCN] NIH Chemical Genomics Center [NCGC] MLPCN Grant: 1 R03 MH092164-01 Assay Provider: Kyungjae Myung, NHGRI, NIH Keywords: MLPCN, qHTS, NCGC, genotoxicity, cancer Assay Overview: Cancer cells divide rapidly compared to normal cells in the body. During cell division, cancer cells need to duplicate their genome by DNA replication. The failure of genome duplication leads to cancer cells' death. Therefore, inhibitors of DNA replication could specifically kill cancer cells. Based on this concept, many chemotherapeutic agents were developed and have been used to treat cancer patients. However, there are a limited number of agents available in the clinical setting, and some of those that do exist have low efficacy and severe side effects. Therefore, if we can find the compounds that effectively block DNA replication either by directly damaging DNA or by inhibiting other cellular mechanisms, the options for cancer treatment will be broadened. With this in mind, we developed a quantitative high-throughput ELG1-luciferase reporter gene assay. Small molecules that specifically block ELG1 function in response to DNA damage can be identified by monitoring the suppression of luciferase activity. Since ELG1 defines a pathway for repairing DNA damage, agents blocking ELG1 function can be used to sensitize cancer cells to chemotherapeutic agents whose mechanism of action involves the induction of DNA damage.
Assay Protocol Summary: For genotoxicity screening, 2,000 cells in 4 uL/well were dispensed into white, solid-bottom 1536-well plates using a solenoid-based dispenser. Following transfer of 1 uL 5-Fluorouridine and 23 nL compound or DMSO vehicle by a pin tool, the plates were incubated 16 hr at 37 °C and 5% CO2. 5 ul ONE-Glo (Promega) was then added to each plate and following a 30 min incubation at room temperature, luciferase activity was quantified on a ViewLux CCD-based plate reader.
For CCOc1ccc(-c2cc(C)[n+](CCN3CCOCC3)c(-c3ccc(OCC)cc3)c2)cc1, the Potency was active: 16.4 µM.
For OC(CNC1CCCCC1)C(F)(F)F (centres undefined), the Potency was “inactive”.
With Cc1onc(-c2ccccc2Cl)c1C(=O)OCC(=O)c1ccc2c(c1)OCCO2 the Potency was active: 13 µM.
For O=C(c1ccc(Cl)cc1)C1CCCN(Cc2ccc3ncccc3c2)C1 (centres undefined), the Potency was inconclusive: 1.3 µM [inhibitor, partial curve].
In the case of COc1cc2c(cc1O)[C@@H]1Cc3ccc(OC)c(O)c3CN1CC2, the Potency was inconclusive: 12.6 µM [inhibitor, partial curve, poor fit].
For Cc1ccc(N2C(=O)NC(=O)/C(=C/c3cnn(-c4ccc(C)cc4)c3)C2=O)cc1, the Potency was “inactive”.
In the case of COc1ccc2nc(/N=C/c3c(O)n(-c4cccc(Cl)c4)c(=O)[nH]c3=O)sc2c1, the Potency was inconclusive: 10 µM [activator, single point].
In the case of Oc1ccccc1/C=N/NP(=S)(c1ccccc1)c1ccccc1, the Potency was “inactive”.
With COc1cc(C2c3cc4c(cc3CC3COC(=O)C32)OCO4)cc(OC)c1OC (centres undefined) the Potency was “inactive”.
In the case of Clc1ccc2c(c1)C(OC1CN3CCC1CC3)c1ccccc1CS2 (centres undefined), the Potency was inconclusive: 29.1 µM [inhibitor, single point].
For CN1C(=O)C(Cc2nc3ccccc3c(=O)n2-c2ccccc2)c2ccccc21 (centres undefined), the Potency was inconclusive: 0.231 µM [inhibitor, single point].
For C=Cn1ccnc1P(=S)(c1ccc(N(C)C)cc1)c1nccn1C=C, the Potency was “inactive”.
In the case of CN1C(=O)C(=Cc2ccc(N3CCCCCC3)o2)C(=O)N(C)C1=S, the Potency was inconclusive: 10.3 µM [activator, partial curve].
For CCOC(=O)c1ccc(NC(=O)C2C3C=CC(O3)C2C(=O)O)cc1 (centres undefined), the Potency was inconclusive: 35.5 µM [activator, single point].
With CC(OC(=O)c1cn(C)c2ccccc12)C(=O)N1CCCC1 (centres undefined) the Potency was inconclusive: 14.6 µM [activator, partial curve, poor fit].
In the case of C[C@@H]1CN([C@H](C)CO)C(=O)c2cc(NC(=O)Nc3ccc(C(F)(F)F)cc3)ccc2O[C@H]1CN(C)S(=O)(=O)c1cccs1, the Potency was inconclusive: 6.51 µM [inhibitor, partial curve].
For CC/C(=N\Nc1ccccc1)c1c(O)n(-c2ccc(OC)cc2)c(=O)[nH]c1=O, the Potency was inconclusive: 4.11 µM [inhibitor, full curve].
With COc1ccc(CCn2c(O)c(C=Nc3ccccc3F)c(=O)[nH]c2=O)cc1OC the Potency was “inactive”.
For S=C1Nc2ccccc2Sc2ccccc21, the Potency was inconclusive: 29.1 µM [inhibitor, single point].
With Fc1ccc2c(c1)nnn2C1CCN(Cc2ccccc2)CC1 the Potency was “inactive”.
With O=C(Cn1nc(-c2ccccc2)ccc1=O)N1CCC2(CC1)OCCO2 the Potency was “inactive”.
For O=C1CC(N2CC=C(c3ccccc3)CC2)C(=O)N1c1ccc(F)cc1 (centres undefined), the Potency was “inactive”.
With O=C1c2ccccc2-c2c1nc1c([n+]2[O-])CCCC1 the Potency was inconclusive: 7.31 µM [activator, partial curve].
In the case of COc1cc(O)cc2c1C(=O)O[C@@H](C)CCCC(=O)CCCCC2, the Potency was “inactive”.
In the case of C/C(N)=C(/C#N)C(=O)CSc1nc2cc(Cl)ccc2c(=O)n1-c1ccc(C)cc1, the Potency was inconclusive: 8.2 µM [inhibitor, partial curve].
With CCC(C)n1c(O)c(/C=N/Nc2nc3c(c(=O)n(C)c(=O)n3C)n2C)c(=O)[nH]c1=S (centres undefined) the Potency was active: 23.1 µM.
With O=C(COc1ccc2ccccc2c1)N1CCN(Cc2c[nH]c3ccccc23)CC1 the Potency was “inactive”.
For COc1ccc(N2C(=O)NC(=O)/C(=C\c3cn(C)c4ccccc34)C2=O)cc1, the Potency was inconclusive: 25.9 µM [activator, single point].
With C/C1=C\[C@@H](C)C/C=C/[C@H]2[C@@H]3O[C@]3(C)[C@@H](C)[C@H]3[C@H](Cc4c[nH]c5ccccc45)NC(=O)[C@]32C(=O)/C=C/C(=O)[C@@H]1O the Potency was inconclusive: 23.1 µM [activator, partial curve].
For COc1ccc(-n2nc(C(=O)NCC(=O)N3CCC4(CC3)OCCO4)c3ccccc3c2=O)cc1OC, the Potency was inconclusive: 8.2 µM [activator, partial curve].
For CN(C)C(=O)Oc1ccc2nnc3ccnn3c2c1, the Potency was “inactive”.
In the case of COC(=O)C1=C(c2cc3ccccc3s2)C[C@@H]2CC[C@H]1N2C, the Potency was inconclusive: 8.2 µM [activator, partial curve].
With COC(=O)C1=C(c2ccccc2OCc2ccccc2)C[C@@H]2CC[C@H]1N2C(=O)NCc1ccc(OC)cc1 the Potency was inconclusive: 29.1 µM [inhibitor, single point].
With Cc1ccc2c(CN3CC=C(c4ccccc4)CC3)cc(=O)oc2c1C the Potency was “inactive”.
With CC(=O)N1N=C(c2c(O)n(C)c(=O)n(C)c2=O)CC1c1ccccc1 (centres undefined) the Potency was inconclusive: 3.26 µM [inhibitor, full curve, poor fit].
For CC(Cl)(Cl)/C(=N/P(=S)(N1CCOCC1)N1CCOCC1)N1CCOCC1, the Potency was inconclusive: 6.51 µM [activator, partial curve, poor fit].
In the case of CC(C)c1ccc(N2C(=O)NC(=O)/C(=C\C=C\c3ccco3)C2=O)cc1, the Potency was inconclusive: 6.51 µM [activator, single point].
For O=Cc1c(C(=O)O)n(Cc2ccccc2F)c2ccccc12, the Potency was inconclusive: 5.8 µM [inhibitor, partial curve, poor fit].
For Cc1ccc(S(=O)(=O)N2CCCCC2)cc1NC(=O)CSc1ncnc2ccccc12, the Potency was inconclusive: 29.1 µM [inhibitor, single point].
For COc1ccccc1CNCC(=O)Nc1cc(S(=O)(=O)N2CCCCC2)ccc1C, the Potency was inconclusive: 18.3 µM [inhibitor, single point].
In the case of Cc1ccccc1C(O)(Cc1ccccc1)C1CN2CCC1CC2 (centres undefined), the Potency was inconclusive: 16.4 µM [inhibitor, single point].
For CN1CCN(C(=S)SCC(=O)Nc2ccc(Cl)cc2C(=O)c2ccccc2)CC1, the Potency was inconclusive: 23.1 µM [inhibitor, partial curve, poor fit].
For Cc1ccc(Cn2nc(C(=O)Nc3ccc(Br)cc3)cc2C)cc1, the Potency was inconclusive: 13 µM [activator, partial curve].
In the case of CCCCC(CC)COP(=O)(OCC(CC)CCCC)OCC(CC)CCCC (centres undefined), the Potency was inconclusive: 23.1 µM [activator, single point].
In the case of CN(C(=O)COC(=O)c1cn(C)c2ccccc12)C1CCCCC1, the Potency was “inactive”.
For CSc1ccc(CNC(C)C(O)c2ccccc2)cc1 (centres undefined), the Potency was “inactive”.
With COC(=O)C1=C(c2ccc(F)cc2OCc2ccccc2)C[C@@H]2CC[C@H]1N2C(=O)N1CCC(O)CC1 the Potency was “inactive”.
In the case of CCCCOc1ccc(CN2CCN(CC)CC2)cc1, the Potency was inconclusive: 29.1 µM [activator, single point].
In the case of CN1CCC(N(C)c2nc(-c3ccc([N+](=O)[O-])cc3)nc3ccccc23)CC1, the Potency was inconclusive: 20.6 µM [inhibitor, partial curve, poor fit].
With CC(C)Sc1nnc([C@@H](N)Cc2ccccc2)o1 the Potency was inconclusive: 18.4 µM [activator, partial curve].
For CN1C(=O)NC(c2cccc(O)c2)C(C(=O)c2cccs2)C1(O)C(F)(F)F (centres undefined), the Potency was inconclusive: 29.1 µM [activator, single point].
In the case of CC1=NCCc2c1[nH]c1cc(O)ccc21, the Potency was “inactive”.
In the case of COc1cc(Br)cc(CN2CCN(C)CC2)c1O, the Potency was “inactive”.
With Cc1cc(C(=O)CS(=O)c2ccc(F)cc2)cc(C)c1OC(=O)N(C)C (centres undefined) the Potency was inconclusive: 20.6 µM [activator, partial curve].
With Cn1c(C(=O)O)c(CC(=O)N2CCN(Cc3ccccc3)CC2)c2ccccc21 the Potency was “inactive”.
In the case of O=C(COC(=O)Cc1ccccc1)Nc1nnc(-c2ccccc2)o1, the Potency was “inactive”.
In the case of O=C1CSC2(CN3CCC2CC3)N1 (centres undefined), the Potency was inconclusive: 18.4 µM [activator, partial curve, poor fit].
In the case of CCC(C)c1ccc(N2C(=O)NC(=O)/C(=C/c3cccn3CCOc3ccc(C)cc3)C2=O)cc1 (centres undefined), the Potency was inconclusive: 29.1 µM [activator, single point].
For O=C(CCn1c(=O)oc2ccccc21)N1CCN(C(c2ccccc2)c2ccccc2)CC1, the Potency was active: 13 µM.
In the case of O=c1[nH]c(CN2CC=C(c3ccccc3)CC2)nc2scc(-c3ccccc3)c12, the Potency was inconclusive: 6.51 µM [inhibitor, single point].
In the case of COc1ccccc1OCCCn1cc(C=O)c2ccccc21, the Potency was inconclusive: 2.31 µM [activator, partial curve].
For CN1C(=O)C(=Cc2ccc(Sc3ccccc3)o2)C(=O)N(C)C1=O, the Potency was “inactive”.
In the case of C=CCn1c(O)c(C(CC)=NCc2cc(OC)cc(OC)c2)c(=O)[nH]c1=O, the Potency was inconclusive: 5.8 µM [inhibitor, partial curve, poor fit].
With O=C(COC(=O)Cc1ccccc1)Nc1cc(S(=O)(=O)N2CCCCC2)ccc1Cl the Potency was “inactive”.
With COC(=O)C1=C(c2ccc(F)cc2F)C[C@@H]2CC[C@H]1N2C(=O)N1CCC(O)CC1 the Potency was “inactive”.
With CN1c2ccc([N+](=O)[O-])cc2CC2(C(=O)NC(=O)N(c3ccc(Br)cc3)C2=O)C1c1ccccc1 (centres undefined) the Potency was “inactive”.
For Cc1cc(C(=O)CS(=O)(=O)c2ccc(F)cc2)cc(C)c1OC(=O)N(C)C, the Potency was inconclusive: 11.6 µM [activator, partial curve].
With CCCC1(CCC)C(=O)NC(=NCc2ccccc2)NC1=O the Potency was inconclusive: 35.5 µM [inhibitor, single point].
With CNC(=O)O/N=C(\N)Cc1csc2ccccc12 the Potency was inconclusive: 20.6 µM [activator, partial curve].
